Measurements taken from PubChem BioAssay AID720513 (Broad Institute, 2013).
Screen size: about 2,100 compounds; about 480 (23%) were called active. This list was built around the results that the source calls inconclusive (neither active nor inactive); the mix of calls is not that of the screen.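 Rule for the calls: active = fitted curve reaches 40% activation at or below the top valid concentration, in every replicate test; inconclusive = replicate tests disagree on the call; inactive = the rest, including activity in the opposite direction.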

Assay: activators raising PGC1a acetylation in cells, dose response, cell-based, cherry-picked samples, set 6 (AID 720513);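 note: cells made to overexpress flag tagged PGC1a plus GCN5 acetyltransferase by viral infection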
Details: U2OS PGC1a acetylation AlphaLISA, overnight, 0 = neutral, -100 = inhibitor control; at 19.5 µM (top of the series) unless noted
With `CC(C)C#Cc1cnc2c(c1)C(=O)N([C@@H](C)CO)C[C@@H](C)[C@@H](CN(C)C(=O)c1ccccn1)O2` the activation (acetylation increase) was inconclusive: 34.9%.
In the case of `COc1ccc(Nc2nc(N)c(C(=O)c3ccc(OC)cc3)s2)cc1`, the activation (acetylation increase) is reported as inconclusive: 47.2%.
With `c1ccc(CN2OCC3Cn4c(nc5ccccc54)C32)cc1` (stereo unspecified) the activation (acetylation increase) was inconclusive: 31.5%.
For `CC(=O)N(C)C[C@H]1Oc2cc(-c3ccc(C#N)cc3)ccc2S(=O)(=O)N([C@@H](C)CO)C[C@@H]1C`, the activation (acetylation increase) was inconclusive: 25.3%.
With `C[C@H](CO)N1C[C@H](C)[C@@H](CN(C)S(=O)(=O)c2ccccc2)OCCCC[C@H](C)Oc2ccc(NC(=O)Nc3cccc4ccccc34)cc2C1=O` the activation (acetylation increase) was inconclusive: 48.3% [at 21 µM].
In the case of `CCS(=O)(=O)N[C@H]1C=C[C@H](CC(=O)N2CCCCC2)O[C@H]1CO`, the activation (acetylation increase) is reported as inconclusive: 46.5%.
For `CCCS(=O)(=O)Nc1cccc(-c2nc3cccnc3s2)c1`, the activation (acetylation increase) was inconclusive: 136%.
With `O=C(c1cccc([N+](=O)[O-])c1)N1CCc2ccccc21` the activation (acetylation increase) was inconclusive: 48%.
In the case of `CCOc1ccc(OC(=O)c2ccc3c(=O)n4c(nc3c2)CCC4)cc1`, the activation (acetylation increase) is reported as inconclusive: -12.2%.
With `CCN(CC)S(=O)(=O)c1ccc(C(=O)N(c2ccccc2)C2C=CS(=O)(=O)C2)cc1` (stereo unspecified) the activation (acetylation increase) was inactive: -8.54%.
For `CCOc1ccc(N2C(=O)CC(Cc3ccc(Br)cc3)C2=O)cc1` (stereo unspecified), the activation (acetylation increase) was inconclusive: 46.2%.
With `CCn1nnc(NC(=O)c2ccc(C(C)(C)C)cc2)n1` the activation (acetylation increase) was inactive: 11%.
For `C[C@@H]1CN([C@@H](C)CO)C(=O)c2cc(/C=C/c3ccccc3)cnc2O[C@@H]1CN(C)Cc1cccnc1`, the activation (acetylation increase) was inconclusive: 34% [at 21 µM].
In the case of `C[C@@H]1CCCCO[C@@H](CN(C)CC2CC2)[C@H](C)CN([C@H](C)CO)C(=O)c2cc(NS(=O)(=O)c3ccccc3)ccc2O1`, the activation (acetylation increase) is reported as inconclusive: 39.4%.
In the case of `CCC(=O)N1C[C@H](C)[C@@H](OC)CN(C)C(=O)c2ccc(NC(=O)Nc3ccccc3)cc2OC[C@@H]1C`, the activation (acetylation increase) is reported as inconclusive: 29.8%.
In the case of `COCC(=O)Nc1ccc2c(c1)OC[C@@H](C)N(CCc1ccccc1)C[C@H](C)[C@H](OC)CN(C)C2=O`, the activation (acetylation increase) is reported as inconclusive: 51.7%.
In the case of `O=C(COC(=O)c1ccco1)NCc1ccc2c(c1)OCO2`, the activation (acetylation increase) is reported as inconclusive: 35.4%.
With `C[C@H](CO)N1C[C@H](C)[C@@H](CN(C)CC2CCCCC2)Oc2c(NC(=O)c3nc4ccccc4s3)cccc2C1=O` the activation (acetylation increase) was inconclusive: -3.98%.
For `COc1ccc(S(=O)(=O)N(C)C[C@H]2Oc3c(NS(=O)(=O)c4ccc(C)cc4)cccc3C(=O)N([C@H](C)CO)C[C@H]2C)cc1`, the activation (acetylation increase) was inactive: 9.63%.
For `Cc1noc(C)c1S(=O)(=O)Nc1ccc2c(c1)C(=O)N([C@H](C)CO)C[C@H](C)[C@H](CN(C)C(=O)c1ccncc1)OCCCC[C@@H](C)O2`, the activation (acetylation increase) was inconclusive: 23.5%.
In the case of `COC(C[C@H]1O[C@@H]1[C@H](O)[C@H](C)OCc1ccccc1)OC`, the activation (acetylation increase) is reported as inactive: -0.97%.
For `CCOc1ccc(CC(=O)Nc2ccc(NC(=O)c3ccco3)cc2)cc1OCC`, the activation (acetylation increase) was inconclusive: 383%.
With `COC(=O)Nc1ccc(S(=O)(=O)N(CCO)CC(F)(F)C(F)F)cc1` the activation (acetylation increase) was inactive: -6.68%.
In the case of `Cc1cc(C)c2oc(C(=O)N(Cc3ccccc3)c3ccccn3)cc(=O)c2c1`, the activation (acetylation increase) is reported as inconclusive: 44.6%.
For `CC(C)OC(=O)c1c(F)c(F)c(N2CCOCC2)c(F)c1F`, the activation (acetylation increase) was inactive: 0.447%.
For `O=C(C=Cc1ccccc1)CC(c1ccccc1)N1CCOCC1` (stereo unspecified), the activation (acetylation increase) was inactive: -65.4%.
For `CC(C)CC#Cc1ccc([C@@H]2[C@H](CO)N3CCCCN(S(=O)(=O)Cc4ccccc4)C[C@@H]23)cc1`, the activation (acetylation increase) was inconclusive: 35.4% [at 5 µM].
In the case of `Nc1nnc(SCC(=O)NC2CCCCC2)n1-c1ccccc1`, the activation (acetylation increase) is reported as inconclusive: 11.5%.
With `O=C(OCc1nc2ccsc2c(=O)[nH]1)c1cccc(S(=O)(=O)N2CCOCC2)c1` the activation (acetylation increase) was inconclusive: 5.56%.
With `COC(=O)C(=Cc1ccc(OCc2ccc([N+](=O)[O-])cc2)c(OC)c1)C(=O)OC` the activation (acetylation increase) was inactive: -2.54%.
With `Cc1ccccc1S(=O)(=O)NCC[C@@H]1CC[C@H](NC(=O)C2CCOCC2)[C@@H](CO)O1` the activation (acetylation increase) was inconclusive: 36.8%.
For `C[C@@H]1CN([C@@H](C)CO)C(=O)c2cc(C#CC3CCCC3)cnc2O[C@H]1CN(C)C(=O)Nc1ccccc1`, the activation (acetylation increase) was inconclusive: 18.7%.
In the case of `CCN(CCCNC(=O)CN(C)S(=O)(=O)c1cccc2nsnc12)c1ccccc1`, the activation (acetylation increase) is reported as inconclusive: 4.53%.
For `C[C@H](CO)N1C[C@H](C)[C@H](CN(C)Cc2ccc(C(=O)O)cc2)Oc2ncc(-c3ccccc3)cc2C1=O`, the activation (acetylation increase) was inconclusive: 50.4%.
For `C#CC(=O)N(c1cccc(OC)c1)C(C(=O)NC1CCCC1)c1cccs1` (stereo unspecified), the activation (acetylation increase) was inactive: -104%.
For `CCCOc1ccc(/C=C/C(=O)O)cc1OC`, the activation (acetylation increase) was inactive: 5.41%.
For `O=C(Cn1nc(C(=O)O)c2ccccc2c1=O)Nc1cccc(Br)c1`, the activation (acetylation increase) was inconclusive: 25.1%.
For `OC[C@H]1[C@H](c2ccc(C#CC3CCCC3)cc2)[C@@H]2CN(CCC(F)(F)F)CCCCN12`, the activation (acetylation increase) was inactive: -58%.
With `O=C(C[C@@H]1C[C@@H]2c3cc(NC(=O)Nc4ccccc4F)ccc3O[C@@H]2[C@@H](CO)O1)NCc1ccc(Oc2ccccc2)cc1` the activation (acetylation increase) was inconclusive: 31.4%.
With `C[C@H]1CN([C@@H](C)CO)C(=O)Cc2cc(NS(C)(=O)=O)ccc2O[C@@H]1CN(C)Cc1ccc2c(c1)OCO2` the activation (acetylation increase) was inactive: 1.57%.
In the case of `COC(=O)c1ccccc1NC(=O)Cn1c(-c2nonc2N)nc2ccccc21`, the activation (acetylation increase) is reported as inconclusive: 0.925%.
In the case of `CCOC(=O)c1oc2ccccc2c1NC(=O)c1cccc(OC)c1`, the activation (acetylation increase) is reported as inconclusive: 70.6%.
In the case of `O=S(=O)(c1ccc(Cl)cc1)c1snnc1-c1ccccc1`, the activation (acetylation increase) is reported as inactive: -91.3%.
With `Cc1ccc(S(=O)(=O)N[C@@H]2C=C[C@H](CC(=O)NCCN3CCCCC3)O[C@@H]2CO)cc1` the activation (acetylation increase) was inconclusive: 48.1%.
With `COc1ccc(Oc2c(Cl)cnn(-c3ccc(F)cc3)c2=O)cc1` the activation (acetylation increase) was inconclusive: -45.3%.
In the case of `CSCCC(NC(=O)c1ccc(Cl)cc1)C(=O)OCC(=O)Nc1cc(Cl)ccc1C` (stereo unspecified), the activation (acetylation increase) is reported as inactive: -30.2%.
